In PubChem BioAssay AID1347423 (Functional Genomics Laboratory (NCATS/FGL), 2020):
The campaign covered roughly 52,000 sequences. About 210 (0.4%) were called active.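 The calls were made as follows: active = gene whose silencing raises cell survival under the drug, median off-target-corrected z-score across its silencing RNAs 2 or more; inactive = the rest.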 Some of the results follow.

Assay: Resistance to Poly (ADP-Ribose) Polymerase inhibitor: Gene Identification via Genome-wide siRNA Screen
Conditions: mouse BRCA2 R2336H ES cells, olaparib, CellTiter-Glo viability; stronger effect = higher value
How it was run: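 Mouse BRCA2 R2336H ES cells were reverse-transfected with siRNA (20 nM final), treated at 48 h with 500 nM olaparib, and read by CellTiter-Glo after 72 h. Scores: MAD-based z per siRNA, median per gene, seed off-target correction.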

Sequence	z-score
CCUGUCAGUCCAAUCAAUUTT against Ldlr	inactive: 0.973
GCACUCAAGACCUGUAUGATT against Cldn18	inactive: 0.862
GGUUCUGUACCAAUGAGUCTT against 2310007H09Rik	inactive: -0.142
GGUUGUUUGGAAAUCAAAUTT against Crisp3	inactive: -1.31
GGCAUGACUGGACUGAAAATT against Ythdf3	inactive: -1.81
GGACAUAAUUCUUUCCGUGTT against 2410075D05Rik	inactive: -0.0671
GUUCCUCUUCGUCAGCACATT against Gja4	inactive: 0.717
GGGUUCAGCAAUUUCAGCATT against Zfp509	inactive: 0.362
GCUUAUGAUGAACAAGCCCTT against Aplra1	inactive: 0.51
GCUGCUUCCUCCUCAUUCUTT against Olfr934	inactive: 1.26
CCCAUGGAAUGAAAACAACTT against A430041E03	inactive: 1.18
GCAGAACUCUGGAAUCAAGTT against Perld1	inactive: -1.34
CCCUCUUAAGACAUGCAGGTT against Cltb	inactive: 0.432
GGUCAUUGAAGUGCAAGCCTT against 4931406C07Rik	inactive: 0.0525
GCCUUUUCAAAACACUUUCTT against 8430426H19Rik	inactive: 1.12
GGAAGUGGAAUUCUUCAGUTT against Rap1gds1	inactive: 0.97
GUUUCCUUGUGCUAAUGUUTT against Olfr1199	inactive: 1.03
GGGCAAAGUUGAAUAUCUGTT against Cbx7	inactive: -0.172
GCCUUUAAUACAUAGGCUUTT against Cxcl9	inactive: 0.149
GGGAUGAGAACAAGAAUGUTT against Moap1	inactive: -0.998
GCUCAGAGAUUAUGGCAUCTT against 3300001G02Rik	inactive: 0.273
GGGAGUGAAUGUUUCACAUTT against C030022K24Rik	inactive: 0.478

Sequence	z-score
CCAUAUUAACUACAACACCTT against Lrrc4	inactive: 0.444
GGAGGCUGCAAUAGAGGAGTT against 2010016F14Rik	inactive: 0.157
CCAUAAGUGAGCUUGAUGUTT against Sipa1l1	inactive: 0.781
CGGCCGUCAGCUUCUUUUATT against Olfr283	inactive: 0.841
GGUCAAGGUAGGCAAUGAATT against Stau2	inactive: -2.43
CCGUAUUGUCCAUUGCCUCTT against Olfr577	inactive: -1.94
GGUGACCACAGACAACAAGTT against Glra4	inactive: -0.136
GGUUUUCCUGCAUUUUUUATT against Rhou	inactive: 0.404
GGUGGAGAAGAAAUCUAAGTT against Eif4g1	inactive: -1.57
GGGAUCAGAGGAAUGUAUCTT against 1700056O17Rik	inactive: -0.692
GGGCUACCUCAGUUUAAACTT against Spic	inactive: 0.0705
GGAGAGUACUAAAUUUAAGTT against 4833418A01Rik	inactive: 0.0243
GGUAGAUAUCAAUAAAGGATT against Olfr794	inactive: -0.704
GGCAUAGCAUGAAUGGACGTT against 1200020A08Rik	inactive: -0.191
CCAAAUUAUCACCCUGUUCTT against Olfr763	inactive: 1.01
CACUCAAAGUUAUAUCAAGTT against Nalp-epsilon	inactive: 0.922
GCAUAUGGCUUAACACAAATT against Tbc1d15	inactive: 0.531
GGAUGAAGCCUUCAUCAGGTT against Adcy6	inactive: 1.36
GGAGGAACUCUGGCAAGCUTT against 2900036G02Rik	inactive: -1.11
GGAGGAACAUAUCAAGGAATT against 2310076O21Rik	inactive: -1.62
CCGUCUCUAUCUACCUAGGTT against Npas3	inactive: 0.489
GGAAACCUUUCGUAUUUCATT against Cbll1	inactive: -0.199

Sequence	z-score
GGAGGAAUCAAAGGCUCCUTT against Slc39a5	inactive: -0.868
GGCUAUGUUGCACUUUCACTT against V1re1	inactive: 0.238
GCCUGAAGAUGAUUCGAUUTT against Gbgt1	inactive: 0.611
CCUACACUAGAAUCCUGAATT against Olfr614	inactive: -0.546
GGAUGGGUCAACAUUCUACTT against V1rb5	inactive: -0.559
GCAGCUUUGAAAUUGUCCATT against Stard5	inactive: -0.137
GGAGUUUUCUUCAACUGGGTT against Atp6v0c	inactive: 0.433
GCGCACUGAGAUUGAAGAATT against Plcd4	inactive: -0.759
GGUACUACGACCAUCUCCUTT against Tnfrsf13b	inactive: 0.104
GGUAUAGUGGAAGAAUACCTT against Bmpr1b	inactive: 0.0142
CCCAAUGGCAAUUUUUAGATT against BC026439	inactive: -0.13
UUCAUGUAGGGUGUCUCUUTT against Olfr180	inactive: 0.0111
GCAAAAACCUAUAGGAAAATT against Srpk2	inactive: 1.35
GCACACAACUGGUAGUUUUTT against Chst1	inactive: 0.39
CGUUGAACUAGCAGUGGACTT against 1110018G07Rik	inactive: -1.24
CCAUCAUCGAUGUGCCCUATT against Olfr355	inactive: -0.681
GGAAUUCCGAAUAUUCCAGTT against AU067695	inactive: 0.695
GGAGACCUCCUUUUCCAUUTT against Slc41a1	inactive: -1.19
GCAGUGGACUUUUUCUUAGTT against Nptx1	inactive: 0.818
GCAUCAAGCAGAAAAGAGGTT against LOC432825	inactive: 1.35
GGAUGAAAUUGUGUUAUCUTT against Snrk	inactive: 0.968
GCUUACCUGGUCUUGGGCATT against Wbscr18	inactive: 0.317

18 successive records already listed:
Sequence	z-score
GGCUAUGUUGCACUUUCACTT against V1re1	inactive: 0.238
GCCUGAAGAUGAUUCGAUUTT against Gbgt1	inactive: 0.611
CCUACACUAGAAUCCUGAATT against Olfr614	inactive: -0.546
GGAUGGGUCAACAUUCUACTT against V1rb5	inactive: -0.559
GCAGCUUUGAAAUUGUCCATT against Stard5	inactive: -0.137
GGAGUUUUCUUCAACUGGGTT against Atp6v0c	inactive: 0.433
GCGCACUGAGAUUGAAGAATT against Plcd4	inactive: -0.759
GGUACUACGACCAUCUCCUTT against Tnfrsf13b	inactive: 0.104
GGUAUAGUGGAAGAAUACCTT against Bmpr1b	inactive: 0.0142
CCCAAUGGCAAUUUUUAGATT against BC026439	inactive: -0.13
UUCAUGUAGGGUGUCUCUUTT against Olfr180	inactive: 0.0111
GCAAAAACCUAUAGGAAAATT against Srpk2	inactive: 1.35
GCACACAACUGGUAGUUUUTT against Chst1	inactive: 0.39
CGUUGAACUAGCAGUGGACTT against 1110018G07Rik	inactive: -1.24
CCAUCAUCGAUGUGCCCUATT against Olfr355	inactive: -0.681
GGAAUUCCGAAUAUUCCAGTT against AU067695	inactive: 0.695
GGAGACCUCCUUUUCCAUUTT against Slc41a1	inactive: -1.19
GCAGUGGACUUUUUCUUAGTT against Nptx1	inactive: 0.818
